These are yes or no findings as the source states them, for the method shown. Some entries that bind do so weakly or less than the wild type.
B1: 蛋白SD3 (单域抗体, SEQ ID NO.3) (VHH, not shown: small tags and cut ends)
VHH: DVQLQESGGGLVQSGGSLTLSCTASGTPLDYYTIGWFRQAPGKEREGVSSIGRLDTRVHYADSVKGRFTISRNNAENTVYLQMNSLKPEDTAIYYCAADRGYSSATPLALGRYIWWGQGTQVTVSS
B2: 蛋白SD4 (单域抗体, SEQ ID NO.4) (VHH, not shown: small tags and cut ends)
VHH: DVQLQESGGGLVQPGGSLRLSCEASGFALDYHSIGWFRQAPGKEREGVSCITTKYGAMYPDSVEGRFTISRDNAENTVYLQMNSLKPEDTAVYYCAAMRLVTSLQSLCLNPARYDYWGQGTQVTVSS

Protein sequences, listed by entry. Tags and fused reporters are not part of them. Lines headed by an entry give the natural chain unless they say otherwise; changes in a name come on top. Chains listed by the source or under a name are the forms on record and can include a tag or linker.
真核IgE蛋白 (eukaryotically expressed human IgE protein) (P01854, form named): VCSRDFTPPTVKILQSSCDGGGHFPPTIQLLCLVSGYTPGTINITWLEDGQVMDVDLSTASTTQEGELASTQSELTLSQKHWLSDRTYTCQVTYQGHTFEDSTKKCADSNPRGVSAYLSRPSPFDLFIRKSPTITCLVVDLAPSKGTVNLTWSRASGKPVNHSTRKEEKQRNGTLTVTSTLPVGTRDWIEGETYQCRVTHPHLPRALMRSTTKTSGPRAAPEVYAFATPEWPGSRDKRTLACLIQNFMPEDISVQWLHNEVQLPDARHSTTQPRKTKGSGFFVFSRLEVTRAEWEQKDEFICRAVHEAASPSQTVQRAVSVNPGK

Target: 真核IgE蛋白 (eukaryotically expressed human IgE protein) (human) (UniProt P01854)
Experiment: static adsorption: 1 ml agarose immunoadsorbent with 10 ml human plasma spiked with 1500 IU/ml IgE, 40 min; IgE kit before/after

Binder	binding
B1	binds
B2	binds
